From article PMC3724668 come the findings set out here.

Chains of the proteins cited; added tags and fusions are not shown.
UniProt P18238: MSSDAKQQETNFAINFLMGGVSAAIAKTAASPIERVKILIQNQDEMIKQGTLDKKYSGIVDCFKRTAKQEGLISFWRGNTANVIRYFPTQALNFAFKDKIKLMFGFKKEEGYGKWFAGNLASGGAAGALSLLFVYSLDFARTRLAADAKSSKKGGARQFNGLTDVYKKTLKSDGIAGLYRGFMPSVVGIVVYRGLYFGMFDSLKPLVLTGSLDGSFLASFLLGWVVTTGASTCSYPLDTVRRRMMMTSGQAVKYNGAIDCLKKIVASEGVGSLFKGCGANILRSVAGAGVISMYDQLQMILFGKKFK

No constants are given. Whether binding was seen depends on the method and setting.

Assay [1] deals with yeast mitochondrial ADP/ATP carrier AAC3 (in solubilised mitochondrial membranes) (yeast (Saccharomyces cerevisiae)) (UniProt P18238). In words: native gel or EMSA; blue native PAGE, 6-18% polyacrylamide gels, CATR-treated yeast mitochondrial membranes (20 ug protein) solubilised in 1% digitonin, Western detection; calibrated with the covalently linked dimer diAAC3.
The target is the same in assay [2]. Description: native gel or EMSA; blue native PAGE, 6-18% polyacrylamide gels, mitochondrial membranes (20 ug protein, 10-fold lower load) solubilised in 1% alkyl maltoside (12M; 10-13M for AAC3), AAC samples CATR-treated, Western detection; calibrated with the covalently linked dimer diAAC3.
In assay [3] the target is purified yeast AAC3 (yeast (Saccharomyces cerevisiae)) (UniProt P18238). Description: SEC; Superdex 200 XK16/60, 10 mM Tris pH 7.4, 150 mM NaCl, 0-0.4% 12M with or without 0.02% Coomassie Blue G-250; 417 ug purified AAC3 loaded; both purified.
Assay [4] shares this target. Description: native gel or EMSA; blue native PAGE, 5-13% polyacrylamide gels, purified AAC3 (2-4 ug per lane) in alkyl maltoside detergents (10-13M), Western detection; both purified.
Assay [5] deals with native uncoupling protein-1 (UCP1) from lamb brown adipose tissue mitochondria (sheep (endogenous in lamb brown adipose tissue)) (UniProt W5PSH7). Description: native gel or EMSA; blue native PAGE, 6-18% polyacrylamide gels, mitochondrial membranes (20 ug protein, 10-fold lower load) solubilised in 1% alkyl maltoside (12M; 10-13M for AAC3), AAC samples CATR-treated, Western detection; calibrated with the covalently linked dimer diAAC3.

As for “yeast mitochondrial ADP/ATP carrier AAC3 (in solubilised mitochondrial membranes) (from UniProt P18238 1-307)”, the binding result in assay [1] and in assay [2] was “no binding” throughout.
Regarding “purified yeast AAC3 (from UniProt P18238 1-307)”, the binding entry in assay [3] and in assay [4] was “no binding” each time.

B1: native uncoupling protein-1 (UCP1) from lamb brown adipose tissue mitochondria (protein, UniProt W5PSH7 1-305)
chain: MVGHAATDVPPTMAVKIFSAGVAACVADIITFPLDTAKVRLQIQGECLTSSAFRYKGVLGTIITLAKTEGPVKLYSGLPAGLQRQISFASLRIGLYDTVQEFFTTGKEASLGSKISAGLTTGGVAVFIGQPTEVVKVRLQAQSHLHGPKPRYTGTYNAYRIIATTEGLTGLWKGTTPNLTRNVIINCTELVTYDLMKEALVKNKLLADDVPCHFVSAVVAGFCTTVLSSPVDVVKTRFVNSSPGQYTSVPNCAMMMLTREGPSAFFKGFVPSFLRLGSWNIIMFVCFEQLKRELMKSRQAMDCAT
Consider B1, for which the binding result in assay [5] was “no binding”.
